Laboratory results published in article PMC8934646.

The chains behind the UniProt entries cited, without tags or fusion partners.
UniProt Q9BUQ8: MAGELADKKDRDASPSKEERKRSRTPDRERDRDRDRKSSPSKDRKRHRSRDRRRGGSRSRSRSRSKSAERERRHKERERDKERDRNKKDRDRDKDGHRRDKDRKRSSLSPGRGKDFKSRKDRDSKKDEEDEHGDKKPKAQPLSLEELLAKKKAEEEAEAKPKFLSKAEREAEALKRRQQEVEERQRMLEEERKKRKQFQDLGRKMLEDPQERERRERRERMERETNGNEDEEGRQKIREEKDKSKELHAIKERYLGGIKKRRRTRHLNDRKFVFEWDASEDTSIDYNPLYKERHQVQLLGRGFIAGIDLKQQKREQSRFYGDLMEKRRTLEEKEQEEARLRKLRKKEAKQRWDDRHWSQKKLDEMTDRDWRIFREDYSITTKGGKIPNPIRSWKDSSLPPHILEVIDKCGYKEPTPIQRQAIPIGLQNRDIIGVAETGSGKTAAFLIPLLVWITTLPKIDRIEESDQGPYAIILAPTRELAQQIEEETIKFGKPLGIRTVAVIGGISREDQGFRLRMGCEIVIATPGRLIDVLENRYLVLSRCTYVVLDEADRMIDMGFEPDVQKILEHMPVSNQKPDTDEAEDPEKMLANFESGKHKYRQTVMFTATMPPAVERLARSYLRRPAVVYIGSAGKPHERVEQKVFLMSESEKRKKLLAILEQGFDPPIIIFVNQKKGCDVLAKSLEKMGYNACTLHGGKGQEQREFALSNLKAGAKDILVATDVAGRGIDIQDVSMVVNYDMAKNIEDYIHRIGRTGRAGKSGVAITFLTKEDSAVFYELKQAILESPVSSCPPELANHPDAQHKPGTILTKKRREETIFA
UniProt O75643: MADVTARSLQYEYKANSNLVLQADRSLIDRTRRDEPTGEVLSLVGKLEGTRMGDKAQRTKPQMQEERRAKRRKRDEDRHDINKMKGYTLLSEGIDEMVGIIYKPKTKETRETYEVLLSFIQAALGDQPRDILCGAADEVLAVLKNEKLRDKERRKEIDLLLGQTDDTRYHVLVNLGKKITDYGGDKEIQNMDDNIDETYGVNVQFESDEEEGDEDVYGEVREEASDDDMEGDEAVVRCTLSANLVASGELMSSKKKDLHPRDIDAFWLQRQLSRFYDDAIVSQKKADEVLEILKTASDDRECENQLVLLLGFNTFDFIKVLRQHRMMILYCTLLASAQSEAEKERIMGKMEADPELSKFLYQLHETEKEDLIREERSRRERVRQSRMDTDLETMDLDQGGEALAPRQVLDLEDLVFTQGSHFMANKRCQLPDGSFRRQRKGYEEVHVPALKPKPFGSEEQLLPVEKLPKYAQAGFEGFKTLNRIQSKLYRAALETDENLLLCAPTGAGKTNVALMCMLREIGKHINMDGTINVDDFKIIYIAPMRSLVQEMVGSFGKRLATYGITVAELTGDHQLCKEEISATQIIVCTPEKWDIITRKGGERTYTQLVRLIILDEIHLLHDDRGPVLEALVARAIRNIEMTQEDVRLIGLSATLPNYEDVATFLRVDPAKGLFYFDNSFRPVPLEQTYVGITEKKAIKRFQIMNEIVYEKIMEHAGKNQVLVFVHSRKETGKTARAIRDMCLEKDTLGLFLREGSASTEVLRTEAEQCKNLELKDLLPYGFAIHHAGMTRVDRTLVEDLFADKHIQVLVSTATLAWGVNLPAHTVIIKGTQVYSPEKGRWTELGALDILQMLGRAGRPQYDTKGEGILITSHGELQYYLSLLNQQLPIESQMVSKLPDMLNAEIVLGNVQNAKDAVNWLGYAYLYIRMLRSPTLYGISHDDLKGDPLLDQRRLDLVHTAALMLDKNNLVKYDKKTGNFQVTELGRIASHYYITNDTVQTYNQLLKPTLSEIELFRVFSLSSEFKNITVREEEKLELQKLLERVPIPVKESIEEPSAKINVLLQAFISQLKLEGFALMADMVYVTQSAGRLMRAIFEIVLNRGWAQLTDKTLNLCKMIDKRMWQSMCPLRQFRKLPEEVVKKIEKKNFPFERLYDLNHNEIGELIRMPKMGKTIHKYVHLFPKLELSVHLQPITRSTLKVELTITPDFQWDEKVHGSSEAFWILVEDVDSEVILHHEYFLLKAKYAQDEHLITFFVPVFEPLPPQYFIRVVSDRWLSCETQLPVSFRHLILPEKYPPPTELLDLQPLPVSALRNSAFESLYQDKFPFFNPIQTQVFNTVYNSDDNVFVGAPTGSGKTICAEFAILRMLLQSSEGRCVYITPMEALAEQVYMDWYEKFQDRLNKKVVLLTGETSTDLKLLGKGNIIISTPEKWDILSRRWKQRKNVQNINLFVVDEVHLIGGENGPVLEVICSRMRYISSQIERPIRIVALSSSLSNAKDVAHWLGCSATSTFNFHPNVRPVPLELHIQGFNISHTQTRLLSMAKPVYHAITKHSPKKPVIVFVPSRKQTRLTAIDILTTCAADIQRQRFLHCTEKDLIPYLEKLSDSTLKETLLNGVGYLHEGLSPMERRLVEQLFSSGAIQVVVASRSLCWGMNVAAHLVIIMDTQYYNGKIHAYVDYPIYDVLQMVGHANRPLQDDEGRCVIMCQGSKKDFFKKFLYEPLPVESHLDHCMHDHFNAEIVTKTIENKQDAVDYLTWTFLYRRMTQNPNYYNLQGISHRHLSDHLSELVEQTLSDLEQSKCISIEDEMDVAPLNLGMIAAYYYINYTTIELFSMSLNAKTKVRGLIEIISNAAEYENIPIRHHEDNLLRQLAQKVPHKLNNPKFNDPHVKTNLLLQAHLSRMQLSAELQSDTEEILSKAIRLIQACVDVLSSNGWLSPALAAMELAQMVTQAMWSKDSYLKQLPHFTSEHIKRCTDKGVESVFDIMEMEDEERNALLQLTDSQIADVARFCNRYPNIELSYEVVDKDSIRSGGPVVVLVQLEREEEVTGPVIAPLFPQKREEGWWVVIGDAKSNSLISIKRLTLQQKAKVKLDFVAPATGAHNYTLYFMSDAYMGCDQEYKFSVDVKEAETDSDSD

Experiments:
[1] = target: T1, TSSC4^V3-Flag, C-terminally 3xFlag-HBH-tagged, stable cell line (human) (UniProt Q9Y5U2); assay: affinity purification with mass spectrometry; Flag-IP (Flag M2 affinity gel) from 500 μg nuclear extract of Flp-In T-REx 293 cells stably expressing 3xFlag-HBH-tagged TSSC4^wt or TSSC4^V3; 10 mM HEPES-NaOH pH 7.3, 150 mM NaCl, 10 mM MgCl2, 10 mM KCl, 0.5 mM EGTA, benzonase; 3xFlag peptide elution; label-free LC-MS against unmodified cells
T1 sequence: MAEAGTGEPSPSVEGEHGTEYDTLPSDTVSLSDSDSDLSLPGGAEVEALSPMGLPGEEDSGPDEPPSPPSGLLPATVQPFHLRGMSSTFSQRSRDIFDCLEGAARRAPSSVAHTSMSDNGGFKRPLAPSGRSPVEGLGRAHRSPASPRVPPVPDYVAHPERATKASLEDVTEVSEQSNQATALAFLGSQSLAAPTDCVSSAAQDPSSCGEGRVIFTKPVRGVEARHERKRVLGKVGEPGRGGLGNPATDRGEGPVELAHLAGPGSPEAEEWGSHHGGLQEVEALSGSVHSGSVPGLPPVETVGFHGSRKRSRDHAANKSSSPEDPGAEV

[2] = target: TSSC4^wt-Flag, C-terminally 3xFlag-HBH-tagged, stable cell line (human) (UniProt Q9Y5U2); assay: as above

binding [1] | binding [2] | Substance
binds | – | PRPF28/DDX23 (from UniProt Q9BUQ8 1-820) (enzyme)
no binding | – | TXNL4 (human (endogenous in HEK293))
– | binds | SNRNP200 (endogenous) (from UniProt O75643 1-2136) (enzyme)
binds | binds | CXORF56 (from UniProt Q9H5V9 1-222)

No constants are given. Whether binding was seen depends on the method and setting. Binding seen in cells or lysates may run through a third protein. Here binding means that the protein was enriched with, or labelled near, the bait; the list need not be complete. For some assays here: No binding means not detected with the bait. For some assays here: Sequences can lack the tags named with a protein.
